Among the data in patent US20110021746A1 (published 2011) are binding values, retold here.

Chains of the proteins cited; added tags and fusions are not shown. Residues count along the entry.
UniProt P30530, residues 26-449: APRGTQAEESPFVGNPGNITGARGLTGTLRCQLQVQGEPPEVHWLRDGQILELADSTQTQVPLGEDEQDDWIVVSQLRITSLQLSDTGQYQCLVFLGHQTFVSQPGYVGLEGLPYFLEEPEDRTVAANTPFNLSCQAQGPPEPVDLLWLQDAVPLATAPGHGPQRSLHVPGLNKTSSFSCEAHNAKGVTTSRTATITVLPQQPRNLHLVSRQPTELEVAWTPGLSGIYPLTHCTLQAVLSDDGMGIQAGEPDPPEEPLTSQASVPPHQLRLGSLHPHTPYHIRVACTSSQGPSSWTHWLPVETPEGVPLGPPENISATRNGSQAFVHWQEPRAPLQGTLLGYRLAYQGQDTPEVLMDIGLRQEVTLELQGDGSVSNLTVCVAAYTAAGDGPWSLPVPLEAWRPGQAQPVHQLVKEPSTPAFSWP

Where a chain is given by its changes, count along the chain named. No constants are given. Whether binding was seen depends on the method and setting. Some binding calls cover weakened binding; strength is not graded here.

The labels stand for the following.
B1: SEQ ID NO 375 (designed binder)
chain: NVSPPRRARVTDATETTITIRWEGRGVIGFQVDAVPANGQTPIQRTIKPDVRSYTITGLQPGTDYKIYLYTLTVVGNSAFASSPVVIDAST
B2: SEQ ID NO 385 (designed binder)
chain: NVSPPRRARVTDATETTITISWRTKTETITGFQVDAVPANGQTPIQRTIDADIHTYTITGLQPGTDYKIYLYTLNEIGDSKYRSSPVVIDAST
B3: SEQ ID NO 394 (designed binder)
chain: NVSPPRRARVTDATETTITISWRTKTETITGFQVDAVPANGQTPIQRTIATNVHSYTITGLQPGTDYKIYLYTLTKRGTGSSPVVIDAST
B4: SEQ ID NO 402 (designed binder)
chain: B3 chain with T51S, N52T, H54N, S55T, T75Y, R77V, G78R, T79A, G80T
B5: SEQ ID NO 396 (designed binder)
chain: B3 chain with T51A, N52A, V53T, H54R, R77Y, G78R, T79A, G80A
B6: SEQ ID NO 383 (designed binder)
chain: NVSPPRRARVTDATETTITISWGVGFQVDAVPANGQTPIQRTIKRGKTVYTITGLQPGTDYKIYLYTLNDNARSSPVVIDAST
B7: 1637112_AXLA04 (designed binder)
chain: B6 chain with G23R, V24T, G25S, K47V, V49S
B8: SEQ ID NO 374 (designed binder)
chain: NVSPPRRARVTDATETTITISWAPAASTVVGLQVDAVPANGQTPIQRTIKPDVRSYTITGLQPGTDYKIYLYTLTMVGAGAVGSSPVVIDAST
B9: SEQ ID NO 407 (designed binder)
chain: NVSPPRRARVTDATETTITIRWTLAGSQFIGFQVDAVPANGQTPIQRTIDGSVHVYTITGLQPGTDYKIYLYTLSKRLETSSPVVIDAST
B10: SEQ ID NO 380 (designed binder)
chain: NVSPPRRARVTDATETTITIRWALPASTVVGFQVDAVPANGQTPIQRTIKPDVRSYTITGLQPGTDYKIYLYTLNIRGNSASASSPVVIDAST
B11: SEQ ID NO 381 (designed binder)
chain: NVSPPRRARVTDATETTITISWEGSPSTFIGFQVDAVPANGQTPIQRTIKPDVRSYTITGLQPGTDYKIYLYTLPDSGRSSSPVVIDAST
B12: SEQ ID NO 376 (designed binder)
chain: NVSPPRRARVTDATETTITIRWERAPSKFVGFQVDAVPANGQTPIQRTIKPDVRSYTITGLQPGTDYKIYLYTLYGYVSGSSPVVIDAST
B13: SEQ ID NO 377 (designed binder)
chain: B12 chain with R21T, E23T, R24V, A25P, P26R
B14: SEQ ID NO 382 (designed binder)
chain: NVSPPRRARVTDATETTITITWTRARSTVVGFQVDAVPANGQTPIQRTIKPDVRSYTITGLQPGTDYKIYLYTLTVIGDSAYSSSPVVIDAST
B15: SEQ ID NO 397 (designed binder)
chain: NVSPPRRARVTDATETTITIRWAEPGFQVDAVPANGQTPIQRTIKRTARVYTITGLQPGTDYKIYLYTLNDNARSSPVVIDAST
B16: SEQ ID NO 416 (designed binder)
chain: B15 chain with A23T, E24L, P25T, T47S, R49N
B17: SEQ ID NO 415 (designed binder)
chain: B15 chain with A23K, E24I, K45N, T47G, A48I, R49T, V50T
B18: SEQ ID NO 386 (designed binder)
chain: NVSPPRRARVTDATETTITISWRTKTETITGFQVDAVPANGQTPIQRTITPTASGYTITGLQPGTDYKIYLYTLNDREKASSPVVIDAST
B19: SEQ ID NO 399 (designed binder)
chain: B18 chain with T50D, T52S, A53K, N75K, D76S, R77G, E78G, K79R
B20: SEQ ID NO 378 (designed binder)
chain: NVSPPRRARVTDATETTITISWKKPKHNGGSKLTGFQVDAVPANGQTPIQRTIKPDVRSYTITGLQPGTDYKIYLYTLYRRLGASSPVVIDAST
B21: SEQ ID NO 379 (designed binder)
chain: NVSPPRRARVTDATETTITITWEAPVRANSILISFQVDAVPANGQTPIQRTIKPDVRSYTITGLQPGTDYKIYLYTLKNYESSSSPVVIDAST
B22: SEQ ID NO 384 (designed binder)
chain: NVSPPRRARVTDATETTITISWRTKTETITGFQVDAVPANGQTPIQRTINSGARVYTITGLQPGTDYKIYLYTLNGYGVGTHASSPVVIDAST
B23: SEQ ID NO 393 (designed binder)
chain: B22 chain with N50A, G52N, A53I, R54H, V55S, H82V, A83S
B24: SEQ ID NO 390 (designed binder)
chain: B22 chain with N50A, S51A, G52S, A53I, R54H, T81E, H82S, A83R
B25: SEQ ID NO 406 (designed binder)
chain: B22 chain with R54H, V55S, N75T, G76M, T81E, H82V, A83R
B26: SEQ ID NO 404 (designed binder)
chain: B22 chain with G52N, R54H, V55I, H82V, A83T
B27: SEQ ID NO 413 (designed binder)
chain: B22 chain with N50A, S51A, G52A, A53V, R54H, V55T, N75T, T81Q, H82V, A83G
B28: SEQ ID NO 398 (designed binder)
chain: B22 chain with N50A, G52N, A53I, R54H, V55S, N75T, A83G
B29: SEQ ID NO 408 (designed binder)
chain: B22 chain with N50A, S51T, G52A, A53K, N75T, T81E, H82Y, A83R
B30: SEQ ID NO 411 (designed binder)
chain: B22 chain with N50A, S51T, N75T, T81A, H82S
B31: SEQ ID NO 389 (designed binder)
chain: B22 chain with S51R, G52N, R54H, V55S, N75T, H82L, A83G
B32: SEQ ID NO 395 (designed binder)
chain: B22 chain with N50A, S51T, N75T, T81Q, H82A
B33: SEQ ID NO 405 (designed binder)
chain: B22 chain with S51R, G52N, R54H, V55A, N75T, H82F
B34: SEQ ID NO 401 (designed binder)
chain: B22 chain with N50A, S51T, N75T
B35: SEQ ID NO 387 (designed binder)
chain: B22 chain with N50T, S51A, G52T, A53I, R54S, V55G, H82V, A83R
B36: SEQ ID NO 410 (designed binder)
chain: B22 chain with S51A, V55T, N75T, H82F, A83G
B37: SEQ ID NO 403 (designed binder)
chain: B22 chain with N50A, S51T, N75T, H82Y, A83S
B38: SEQ ID NO 388 (designed binder)
chain: B22 chain with G52A, R54H, N75T, H82D
B39: SEQ ID NO 400 (designed binder)
chain: B22 chain with S51R, G52N, R54H, V55T, H82V, A83S
B40: SEQ ID NO 391 (designed binder)
chain: B22 chain with V55S, H82L
B41: SEQ ID NO 412 (designed binder)
chain: B22 chain with N50A, S51T, G52A, A53K, N75T, T81E, H82V, A83R
B42: SEQ ID NO 409 (designed binder)
chain: B22 chain with G52A, R54H, V55A, H82L
B43: SEQ ID NO 414 (designed binder)
chain: B22 chain with R23L, N50H, S51A, R54H, V55I, Y77F, V79N, T81E, H82F, A83T

The test has as its target Axl (UniProt P30530). As to the kind of experiment: phage display selection.
Consider B1, for which the binding entry was “binds”. As for B2, the entry is “binds”. Next, B3: “binds”; B4: “binds”; B5: “binds”.

With B6, the binding entry is reported as “binds”. Next, B7: “binds”; B8: “binds”. For B9, the binding result was “binds”. Next, B10: “binds”. For the molecule B11, the binding entry is on record as “binds”. Next, B12: “binds”; B13: “binds”; B14: “binds”. Consider B15, for which the binding result is “binds”.

As to B16, the binding result is reported as “binds”. As to B17, the binding result is given as “binds”. As to B18, the binding entry was “binds”. As for B19, the entry is “binds”. In the case of B20, the binding entry is recorded as “binds”. Turning to B21, the binding result is “binds”. In the case of B22, the binding entry is listed as “binds”. Next, B23: “binds”; B24: “binds”; B25: “binds”. As for B26, the entry is “binds”. As for B27, the entry is “binds”; as for B28, “binds”; as for B29, “binds”.

On to B30, for which the binding result is given as “binds”.

With B31, the binding result is on record as “binds”. As for B32, the entry is “binds”; as for B33, “binds”. Turning to B34, the binding entry is on record as “binds”. Next, B35: “binds”; B36: “binds”; B37: “binds”. Next, B38: “binds”; B39: “binds”. As for B40, the entry is “binds”; as for B41, “binds”. In the case of B42, the binding result was “binds”. With B43, the binding result was “binds”.
